Assay results as given in patent US20250154171A1, “RAS INHIBITORS” (Revolution Medicines, Inc., priority 2023, published 2025).
Some results were stated once for a whole list of compounds, not compound by compound.

Chains of the proteins cited; added tags and fusions are not shown. Lines headed by an entry give the natural chain unless they say otherwise; changes in a name come on top. Residues count along the entry.
UniProt P01116, 1-188 isoform P01116-2 G12V: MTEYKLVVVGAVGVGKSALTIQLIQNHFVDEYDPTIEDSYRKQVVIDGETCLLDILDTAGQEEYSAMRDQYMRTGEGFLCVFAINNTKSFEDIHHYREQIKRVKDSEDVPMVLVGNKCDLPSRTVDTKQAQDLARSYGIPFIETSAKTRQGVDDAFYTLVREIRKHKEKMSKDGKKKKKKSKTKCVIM
UniProt P62937, whole entry: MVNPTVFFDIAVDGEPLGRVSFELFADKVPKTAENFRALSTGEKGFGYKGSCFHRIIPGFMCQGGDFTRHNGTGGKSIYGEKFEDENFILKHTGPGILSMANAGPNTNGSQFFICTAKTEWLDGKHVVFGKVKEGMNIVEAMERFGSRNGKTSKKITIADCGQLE

What was measured:
Capan-1 (K-Ras G12V) = test: CellTiter-Glo cell viability assay, Capan-1; format: cell-based, human; conditions: 5-day treatment, Capan-1 versus A375
K-RasG12V = K-RasG12V (Homo sapiens, UniProt P01116+P62937, G12V); test: Disruption of BRAF RBD interaction with K-Ras (TR-FRET / MOA assay), K-RasG12V; format: biochemical; conditions: TR-FRET with cyclophilin A and GST-BRAF RBD, read-out: IC50 with respect to K-RasG12V (disruption of BRAF RBD interaction)

Row | Compound | decrease in cell viability with respect to KRAS G12V (Capan-1) versus wild-type KRAS (A375) (Capan-1 (K-Ras G12V)) | IC50 (K-RasG12V) [nM]
1 | CO[C@@H](C)c1ncc(N2CCN(C3CC3)CC2)cc1-c1c2c3cc(ccc3n1CCOC1CCOCC1)-c1csc(n1)[C@@H](OCC(F)F)[C@H](NC(=O)[C@@H]1[C@@H](C)[C@H]1c1ccon1)C(=O)N1CCC[C@H](N1)C(=O)OCC(C)(C)C2 (racemic) [Example A746] | greater decrease in cell viability | < 1000
2 | CO[C@@H](C)c1ncc(N2CCN(C3CC3)CC2)cc1-c1c2c3cc(ccc3n1CCOC1CCOCC1)-c1csc(n1)[C@@H](OCC(F)F)[C@H](NC(=O)[C@@H]1[C@@H](C)[C@H]1c1cccnn1)C(=O)N1CCC[C@H](N1)C(=O)OCC(C)(C)C2 (racemic) [Example A747] | greater decrease in cell viability | < 1000
3 | CO[C@@H](C)c1ncc(N2CCN(C3CC3)CC2)cc1-c1c2c3cc(ccc3n1CCOC1CCOCC1)-c1csc(n1)[C@@H](OCC(F)F)[C@H](NC(=O)C1[C@@H](c3cccnn3)[C@H]1C)C(=O)N1CCC[C@H](N1)C(=O)OCC(C)(C)C2 (mixture of isomers) [Example A748] | greater decrease in cell viability | < 1000
4 | CCO[C@@H]1c2nc(cs2)-c2ccc3c(c2)c(c(-c2cc(N4CCN(C5CC5)CC4)cnc2[C@H](C)OC)n3CCN2CCOCC2)CC(C)(C)COC(=O)[C@@H]2CCCN(N2)C(=O)[C@H]1NC(=O)[C@H]1[C@H](C)[C@@H]1C(C)C (racemic) [Example A749] | greater decrease in cell viability | < 1000
5 | CO[C@@H](C)c1ncc(N2CCN(C3CC3)CC2)cc1-c1c2c3cc(ccc3n1CCOC1CCOCC1)-c1csc(n1)[C@@H](N1CCOCC1)[C@H](NC(=O)C13CC(CO1)C3)C(=O)N1CCC[C@H](N1)C(=O)OCC(C)(C)C2 (racemic) [Example A750] | greater decrease in cell viability | < 1000
6 | CO[C@@H](C)c1ncccc1-c1c2c3cc(ccc3n1CCOC1CCOCC1)-c1csc(n1)[C@@H](N1CCOCC1)[C@H](NC(=O)N1CC[C@H]1C)C(=O)N1CCC[C@H](N1)C(=O)OCC(C)(C)C2 (racemic) [Example A751] | greater decrease in cell viability | < 1000
7 | CO[C@@H](C)c1ncccc1-c1c2c3cc(ccc3n1CCOC1CCOCC1)-c1csc(n1)[C@@H](N1CCOCC1)[C@H](NC(=O)[C@@H]1[C@@H](C)[C@H]1C(=O)N1CCN(C)CC1)C(=O)N1CCC[C@H](N1)C(=O)OCC(C)(C)C2 (racemic) [Example A752] | greater decrease in cell viability | < 1000
8 | CO[C@@H](C)c1ncccc1-c1c2c3cc(ccc3n1CCOC1CCOCC1)-c1csc(n1)[C@@H](N1CCOCC1)[C@H](NC(=O)[C@@H]1[C@@H](C)[C@H]1c1ccccn1)C(=O)N1CCC[C@H](N1)C(=O)OCC(C)(C)C2 (racemic) [Example A753] | greater decrease in cell viability | < 1000
9 | CCO[C@@H]1c2coc(n2)-c2ccc3c(c2)c(c(-c2cc(N4CCN(C5COC5)CC4)cnc2[C@H](C)OC)n3CCOC2CCOCC2)CC(C)(C)COC(=O)[C@@H]2CCCN(N2)C(=O)[C@H]1NC(=O)[C@H]1[C@H](C)[C@@H]1C(C)C (racemic) [Example A754] | greater decrease in cell viability | < 1000
10 | CCO[C@@H]1c2coc(n2)-c2ccc3c(c2)c(c(-c2cc(N4CCN(C5COC5)CC4)cnc2[C@H](C)OC)n3CCOC2CCOCC2)CC(C)(C)COC(=O)[C@@H]2CCCN(N2)C(=O)[C@H]1NC(=O)[C@@H]1[C@@H](C)[C@H]1C(C)C (racemic) [Example A755] | greater decrease in cell viability | < 1000
11 | CO[C@@H](C)c1ncc(N2CCN(C3COC3)CC2)cc1-c1c2c3cc(ccc3n1CCOC1CCOCC1)-c1csc(n1)[C@@H](OCC(F)F)[C@H](NC(=O)[C@@H]1[C@@H](C)[C@H]1c1ccccn1)C(=O)N1CCC[C@H](N1)C(=O)OCC(C)(C)C2 (racemic) [Example A756] | greater decrease in cell viability | < 1000
12 | CCO[C@@H]1c2nc(cs2)-c2ccc3c(c2)c(c(-c2cc(N4CCN(C5COC5)CC4)cnc2[C@H](C)OC)n3CCOC2CCOCC2)CC(C)(C)COC(=O)[C@@H]2CCCN(N2)C(=O)[C@H]1NC(=O)[C@@H]1[C@@H](C)[C@H]1c1ccccn1 (racemic) [Example A757] | greater decrease in cell viability | < 1000
13 | CCO[C@@H]1c2coc(n2)-c2ccc3c(c2)c(c(-c2cc(N4CCN(C5CC5)CC4)cnc2[C@H](C)OC)n3CCOC2CCOCC2)CC(C)(C)COC(=O)[C@@H]2CCCN(N2)C(=O)[C@H]1NC(=O)[C@@H]1[C@@H](C)[C@H]1c1ccccn1 (racemic) [Example A758] | greater decrease in cell viability | < 1000
14 | CCO[C@@H]1c2coc(n2)-c2ccc3c(c2)c(c(-c2cc(N4CCN(C5CC5)CC4)cnc2[C@H](C)OC)n3CCOC2CCOCC2)CC(C)(C)COC(=O)[C@@H]2CCCN(N2)C(=O)[C@H]1NC(=O)[C@H]1[C@H](C)[C@@H]1C(C)C (racemic) [Example A759] | greater decrease in cell viability | < 1000
15 | CCO[C@@H]1c2coc(n2)-c2ccc3c(c2)c(c(-c2cc(N4CCN(C5CC5)CC4)cnc2[C@H](C)OC)n3CCOC2CCOCC2)CC(C)(C)COC(=O)[C@@H]2CCCN(N2)C(=O)[C@H]1NC(=O)[C@H]1[C@H](C)[C@@H]1C (racemic) [Example A760] | greater decrease in cell viability | < 1000
16 | CO[C@@H](C)c1ncc(N2CCN(C3CC3)CC2)cc1-c1c2c3cc(ccc3n1CCOC1CCOCC1)-c1csc(n1)[C@@H](OCC(F)F)[C@H](NC(=O)C1[C@@H](c3ccon3)[C@H]1C)C(=O)N1CCC[C@H](N1)C(=O)OCC(C)(C)C2 (mixture of isomers) [Example A761] | greater decrease in cell viability | < 1000
17 | CO[C@@H](C)c1ncc(N2CCN(C3CC3)CC2)cc1-c1c2c3cc(ccc3n1CCOC1CCOCC1)-c1csc(n1)[C@@H](OCC(F)F)[C@H](NC(=O)N1C[C@@H]3COCC[C@@H]31)C(=O)N1CCC[C@H](N1)C(=O)OCC(C)(C)C2 (racemic) [Example A762] | greater decrease in cell viability | < 1000
18 | CO[C@@H](C)c1ncc([C@@H]2CCN(C)C2)cc1-c1c2c3cc(ccc3n1CCOC(C)C)-c1csc(n1)[C@@H](OCC(F)F)[C@H](NC(=O)[C@H]1[C@H](C)[C@@H]1C)C(=O)N1CCC[C@H](N1)C(=O)OCC(C)(C)C2 (racemic) [Example A763] | greater decrease in cell viability | < 1000
19 | CCO[C@@H]1c2nc(cs2)-c2ccc3c(c2)c(c(-c2cc(N4CCN(C5CC5)CC4)cnc2[C@H](C)OC)n3CCOC2CC3(COC3)C2)CC(C)(C)COC(=O)[C@@H]2CCCN(N2)C(=O)[C@H]1NC(=O)[C@H]1[C@H](C)[C@@H]1C (racemic) [Example A764] | greater decrease in cell viability | < 1000
